# Test results from the supplement of paper PMC11732987, “Enantioselective OTUD7B fragment discovery through chemoproteomics screening and high-throughput optimisation” (Communications Chemistry, 2025).
# By UniProt entry, the sequences of proteins in these tests, tags left out. Where a name states a change or a piece, a line headed by the entry shows the natural chain unless it says otherwise. Residues count along the entry.
# UniProt Q12802, 1160-1193: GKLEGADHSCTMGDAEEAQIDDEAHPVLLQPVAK
# UniProt Q99996, whole entry, looked up: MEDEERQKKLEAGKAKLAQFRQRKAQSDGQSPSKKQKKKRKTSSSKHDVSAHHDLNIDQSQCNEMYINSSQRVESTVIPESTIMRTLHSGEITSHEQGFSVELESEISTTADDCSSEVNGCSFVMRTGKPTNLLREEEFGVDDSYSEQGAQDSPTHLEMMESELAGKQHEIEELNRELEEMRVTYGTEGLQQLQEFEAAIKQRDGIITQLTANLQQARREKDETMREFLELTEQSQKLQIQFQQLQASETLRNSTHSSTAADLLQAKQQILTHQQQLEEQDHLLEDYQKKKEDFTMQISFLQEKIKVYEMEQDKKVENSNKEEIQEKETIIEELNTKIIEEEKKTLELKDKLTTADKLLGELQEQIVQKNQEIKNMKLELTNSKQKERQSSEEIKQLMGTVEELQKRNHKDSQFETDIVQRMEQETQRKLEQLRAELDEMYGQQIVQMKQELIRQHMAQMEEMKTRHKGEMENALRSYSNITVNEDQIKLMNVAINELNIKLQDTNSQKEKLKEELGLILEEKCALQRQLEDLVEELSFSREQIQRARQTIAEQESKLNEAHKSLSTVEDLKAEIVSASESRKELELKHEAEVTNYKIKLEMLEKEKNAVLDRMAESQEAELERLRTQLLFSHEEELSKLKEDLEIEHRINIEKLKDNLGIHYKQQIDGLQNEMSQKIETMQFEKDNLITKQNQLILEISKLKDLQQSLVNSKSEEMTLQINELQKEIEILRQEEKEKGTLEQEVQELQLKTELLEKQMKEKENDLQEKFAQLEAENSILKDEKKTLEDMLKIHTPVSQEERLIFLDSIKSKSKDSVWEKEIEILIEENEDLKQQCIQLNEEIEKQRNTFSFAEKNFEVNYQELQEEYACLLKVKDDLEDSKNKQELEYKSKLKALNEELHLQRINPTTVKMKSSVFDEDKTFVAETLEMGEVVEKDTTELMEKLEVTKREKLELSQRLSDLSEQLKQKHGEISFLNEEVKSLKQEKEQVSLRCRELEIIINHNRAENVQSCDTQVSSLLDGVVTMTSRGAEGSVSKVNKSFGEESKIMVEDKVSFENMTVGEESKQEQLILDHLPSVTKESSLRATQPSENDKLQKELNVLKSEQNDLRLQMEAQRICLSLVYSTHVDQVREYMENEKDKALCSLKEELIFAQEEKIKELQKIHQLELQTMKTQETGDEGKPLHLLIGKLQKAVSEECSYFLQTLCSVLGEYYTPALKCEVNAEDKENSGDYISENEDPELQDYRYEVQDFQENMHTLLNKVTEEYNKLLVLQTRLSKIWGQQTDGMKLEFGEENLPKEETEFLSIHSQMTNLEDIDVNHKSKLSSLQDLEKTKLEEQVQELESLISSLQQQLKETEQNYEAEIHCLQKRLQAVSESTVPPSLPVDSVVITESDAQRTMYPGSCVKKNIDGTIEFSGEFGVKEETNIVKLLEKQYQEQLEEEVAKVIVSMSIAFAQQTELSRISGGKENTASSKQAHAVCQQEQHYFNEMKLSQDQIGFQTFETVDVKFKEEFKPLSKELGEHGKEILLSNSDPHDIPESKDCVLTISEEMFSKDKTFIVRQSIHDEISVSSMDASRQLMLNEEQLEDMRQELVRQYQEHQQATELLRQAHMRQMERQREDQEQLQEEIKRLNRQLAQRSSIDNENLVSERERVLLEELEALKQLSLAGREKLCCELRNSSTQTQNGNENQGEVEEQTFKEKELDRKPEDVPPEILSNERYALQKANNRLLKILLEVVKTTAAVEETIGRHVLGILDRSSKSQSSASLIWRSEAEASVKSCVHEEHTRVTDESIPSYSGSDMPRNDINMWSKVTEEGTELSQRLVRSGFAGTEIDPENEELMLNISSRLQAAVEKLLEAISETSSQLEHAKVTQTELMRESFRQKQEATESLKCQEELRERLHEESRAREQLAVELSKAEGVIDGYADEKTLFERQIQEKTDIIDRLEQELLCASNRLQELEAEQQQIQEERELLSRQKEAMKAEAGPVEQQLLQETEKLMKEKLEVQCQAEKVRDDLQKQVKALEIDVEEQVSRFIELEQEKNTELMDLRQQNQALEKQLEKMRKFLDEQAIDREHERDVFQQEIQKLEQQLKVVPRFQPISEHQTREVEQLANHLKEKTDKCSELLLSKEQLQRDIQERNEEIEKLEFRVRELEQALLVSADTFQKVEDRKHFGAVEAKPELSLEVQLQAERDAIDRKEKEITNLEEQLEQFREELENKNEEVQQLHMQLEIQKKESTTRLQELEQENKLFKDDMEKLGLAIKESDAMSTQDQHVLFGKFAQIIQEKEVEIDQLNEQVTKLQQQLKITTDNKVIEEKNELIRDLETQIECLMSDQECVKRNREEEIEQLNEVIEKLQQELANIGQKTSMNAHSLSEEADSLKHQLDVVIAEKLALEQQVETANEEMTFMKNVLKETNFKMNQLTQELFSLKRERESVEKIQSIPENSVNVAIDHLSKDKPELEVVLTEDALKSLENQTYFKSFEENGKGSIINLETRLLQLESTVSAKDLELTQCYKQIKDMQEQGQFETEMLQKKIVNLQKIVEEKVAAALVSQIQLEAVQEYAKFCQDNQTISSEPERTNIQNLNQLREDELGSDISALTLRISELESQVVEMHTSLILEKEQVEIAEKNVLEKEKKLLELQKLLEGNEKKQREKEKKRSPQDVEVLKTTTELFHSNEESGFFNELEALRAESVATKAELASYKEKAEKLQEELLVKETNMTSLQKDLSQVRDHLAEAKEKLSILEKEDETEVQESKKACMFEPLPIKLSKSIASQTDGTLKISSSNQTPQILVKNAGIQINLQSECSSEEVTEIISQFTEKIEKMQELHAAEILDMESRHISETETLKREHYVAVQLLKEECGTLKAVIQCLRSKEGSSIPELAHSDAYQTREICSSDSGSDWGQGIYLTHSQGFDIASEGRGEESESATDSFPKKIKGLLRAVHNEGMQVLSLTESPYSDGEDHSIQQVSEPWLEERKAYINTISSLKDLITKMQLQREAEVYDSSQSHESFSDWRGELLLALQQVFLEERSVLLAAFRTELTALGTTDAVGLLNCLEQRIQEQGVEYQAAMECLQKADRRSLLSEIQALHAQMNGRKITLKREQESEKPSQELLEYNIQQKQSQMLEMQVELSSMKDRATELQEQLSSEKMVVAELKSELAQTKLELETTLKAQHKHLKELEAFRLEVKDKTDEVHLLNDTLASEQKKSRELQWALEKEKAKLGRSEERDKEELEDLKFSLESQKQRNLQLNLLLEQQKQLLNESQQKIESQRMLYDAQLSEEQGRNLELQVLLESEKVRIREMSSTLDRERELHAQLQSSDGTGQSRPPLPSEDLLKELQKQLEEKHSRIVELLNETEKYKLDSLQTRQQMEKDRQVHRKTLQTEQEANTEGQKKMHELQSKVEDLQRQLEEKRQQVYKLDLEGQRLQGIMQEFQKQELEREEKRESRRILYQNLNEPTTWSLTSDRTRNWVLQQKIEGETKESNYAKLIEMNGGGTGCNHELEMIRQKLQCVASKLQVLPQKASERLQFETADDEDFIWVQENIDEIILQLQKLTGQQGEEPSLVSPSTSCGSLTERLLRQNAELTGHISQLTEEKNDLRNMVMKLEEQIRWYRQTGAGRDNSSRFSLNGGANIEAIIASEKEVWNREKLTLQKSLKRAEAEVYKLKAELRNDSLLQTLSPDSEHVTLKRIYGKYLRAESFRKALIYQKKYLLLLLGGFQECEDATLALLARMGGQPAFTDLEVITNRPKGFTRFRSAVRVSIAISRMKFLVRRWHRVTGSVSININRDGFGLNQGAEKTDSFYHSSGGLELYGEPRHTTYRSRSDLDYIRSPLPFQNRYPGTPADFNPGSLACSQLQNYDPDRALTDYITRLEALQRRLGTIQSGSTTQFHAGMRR
# UniProt P78536, 398-432: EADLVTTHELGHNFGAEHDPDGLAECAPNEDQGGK
# UniProt Q9UKA4: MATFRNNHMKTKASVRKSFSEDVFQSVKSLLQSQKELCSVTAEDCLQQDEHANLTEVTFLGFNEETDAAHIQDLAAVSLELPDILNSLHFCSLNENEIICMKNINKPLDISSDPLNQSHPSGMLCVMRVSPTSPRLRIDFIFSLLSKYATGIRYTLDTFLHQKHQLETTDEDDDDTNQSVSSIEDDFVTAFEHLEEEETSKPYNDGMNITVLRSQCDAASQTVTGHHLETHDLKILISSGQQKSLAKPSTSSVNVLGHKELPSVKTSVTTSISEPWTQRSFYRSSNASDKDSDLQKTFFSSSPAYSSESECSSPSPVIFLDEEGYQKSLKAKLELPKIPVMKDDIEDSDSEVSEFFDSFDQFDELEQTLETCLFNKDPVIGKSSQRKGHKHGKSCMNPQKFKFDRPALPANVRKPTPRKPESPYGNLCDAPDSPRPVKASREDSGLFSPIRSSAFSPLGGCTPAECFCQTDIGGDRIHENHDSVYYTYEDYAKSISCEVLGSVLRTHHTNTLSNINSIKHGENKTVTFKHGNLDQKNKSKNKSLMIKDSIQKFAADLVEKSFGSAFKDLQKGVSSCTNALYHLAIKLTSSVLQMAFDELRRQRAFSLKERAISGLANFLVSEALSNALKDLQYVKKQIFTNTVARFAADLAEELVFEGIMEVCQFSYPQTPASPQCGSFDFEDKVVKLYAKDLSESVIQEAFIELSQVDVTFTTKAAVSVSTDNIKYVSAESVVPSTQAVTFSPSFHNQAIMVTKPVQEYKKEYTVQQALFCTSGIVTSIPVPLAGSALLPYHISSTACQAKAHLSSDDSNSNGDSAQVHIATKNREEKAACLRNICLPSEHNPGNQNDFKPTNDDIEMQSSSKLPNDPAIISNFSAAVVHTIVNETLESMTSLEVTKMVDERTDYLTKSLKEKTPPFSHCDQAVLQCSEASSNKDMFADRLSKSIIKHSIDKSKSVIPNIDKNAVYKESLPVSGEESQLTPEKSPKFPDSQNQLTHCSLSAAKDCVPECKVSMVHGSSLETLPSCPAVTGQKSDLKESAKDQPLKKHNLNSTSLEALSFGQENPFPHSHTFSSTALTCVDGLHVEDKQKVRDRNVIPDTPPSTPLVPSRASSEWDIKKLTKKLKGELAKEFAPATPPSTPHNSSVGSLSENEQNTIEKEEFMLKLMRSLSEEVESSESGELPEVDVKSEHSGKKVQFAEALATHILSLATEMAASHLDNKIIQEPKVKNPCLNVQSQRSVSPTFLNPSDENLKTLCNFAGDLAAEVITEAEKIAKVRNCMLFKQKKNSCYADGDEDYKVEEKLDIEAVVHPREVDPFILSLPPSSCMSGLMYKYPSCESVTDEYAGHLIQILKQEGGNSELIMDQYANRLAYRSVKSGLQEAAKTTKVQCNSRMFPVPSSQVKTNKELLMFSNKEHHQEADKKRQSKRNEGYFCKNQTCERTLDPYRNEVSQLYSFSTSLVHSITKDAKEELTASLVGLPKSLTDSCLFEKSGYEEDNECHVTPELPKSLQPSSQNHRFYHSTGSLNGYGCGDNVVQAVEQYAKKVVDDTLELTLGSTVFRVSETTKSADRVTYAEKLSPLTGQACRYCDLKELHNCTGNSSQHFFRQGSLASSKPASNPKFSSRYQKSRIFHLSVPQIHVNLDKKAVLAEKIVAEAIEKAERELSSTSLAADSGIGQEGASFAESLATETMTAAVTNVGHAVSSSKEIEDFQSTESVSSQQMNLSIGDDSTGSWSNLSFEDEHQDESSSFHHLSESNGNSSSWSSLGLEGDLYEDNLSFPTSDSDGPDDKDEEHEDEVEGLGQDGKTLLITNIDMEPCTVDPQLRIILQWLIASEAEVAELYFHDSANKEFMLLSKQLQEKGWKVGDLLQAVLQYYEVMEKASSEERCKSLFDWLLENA
# UniProt O14734: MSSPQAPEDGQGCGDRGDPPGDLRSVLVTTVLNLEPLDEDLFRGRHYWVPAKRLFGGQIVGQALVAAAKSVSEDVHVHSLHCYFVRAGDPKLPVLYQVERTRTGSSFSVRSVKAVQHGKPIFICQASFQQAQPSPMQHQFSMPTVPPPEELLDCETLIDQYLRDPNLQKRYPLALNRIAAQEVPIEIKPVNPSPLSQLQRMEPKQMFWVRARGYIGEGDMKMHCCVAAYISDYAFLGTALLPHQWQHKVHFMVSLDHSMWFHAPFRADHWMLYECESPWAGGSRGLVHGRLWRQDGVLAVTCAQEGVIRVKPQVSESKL
# UniProt O60488, 361-380: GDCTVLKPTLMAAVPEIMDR
# UniProt Q8N556, 189-208: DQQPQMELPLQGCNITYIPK
# UniProt Q13686, 292-315: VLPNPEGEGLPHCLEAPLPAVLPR
# UniProt Q9P2G1, 11-31: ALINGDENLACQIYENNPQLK
# UniProt Q96SZ5, whole entry, looked up: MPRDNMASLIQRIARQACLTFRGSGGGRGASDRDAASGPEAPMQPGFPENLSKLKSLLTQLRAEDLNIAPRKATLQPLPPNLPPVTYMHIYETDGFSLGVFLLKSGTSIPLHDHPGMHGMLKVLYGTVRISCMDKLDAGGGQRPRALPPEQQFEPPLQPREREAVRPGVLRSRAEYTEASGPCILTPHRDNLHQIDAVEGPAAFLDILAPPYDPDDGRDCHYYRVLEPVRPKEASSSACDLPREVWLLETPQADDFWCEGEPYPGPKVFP
# The list shows a part of the results. The data scatter; read single values as rough.
# Tests used:
# [1] = compound: ClCC(=O)N[C@@H]1CCCc2ccccc12; experiment: log2 mean competition ratio of IA-DTB cysteine labelling (DMSO/compound) (log2 ratio); higher = stronger cysteine engagement by compound; conditions: treatment time: 4 h, cell line lysate: HEK293T
# Description: (§1)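 IA-DTB competitive cysteine chemoproteomics in HEK293T RIPA lysate. Lysates were treated with compound 29 or 30 at 50 or 200 µM for 4 h, then IA-DTB (500 µM, 1 h), trypsin-digested, NeutrAvidin-enriched and analysed by diaPASEF. Competition ratio = intensity DMSO / intensity compound (n=4 treated, n=64 DMSO); binding: mean log2 CR ≥ 1 and p ≤ 0.05 plus QC filters. Target is the cysteine site.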
# [2] = compound: ClCC(=O)N[C@H]1CCCc2ccccc12; experiment: as above; conditions: treatment time: 4 h, cell line lysate: HEK293T
# Description: as §1
Target,log2 mean competition ratio ([1]; 50 µM),log2 mean competition ratio ([1]; 200 µM),log2 mean competition ratio ([2]; 50 µM),log2 mean competition ratio ([2]; 200 µM)
AKAP13 C1169 (UniProt Q12802),-0.23,-0.314,0.116,-0.214
AKAP8 C351 (UniProt O43823),-0.258,-0.226,-0.517,0.129
AFDN C1684,0.00587,-0.228,-0.266,-0.258
AMOT C1047 (UniProt Q4VCS5),-0.149,-0.616,0.367,-0.402
ADAR C622 (UniProt P55265),0.171,0.236,0.113,0.272
AGFG2 C30 (UniProt O95081),0.157,0.218,0.389,0.369
AHDC1 C1461 (UniProt Q5TGY3),0.00497,0.404,0.0275,0.481
ALDH6A1 C86 (UniProt Q02252),-0.167,0.0215,0.319,0.0934
AKAP9 C2010 (UniProt Q99996),-0.181,0.000148,-0.199,-0.125
ACSF3 C399 (UniProt Q4G176),-0.0675,-0.00113,-0.209,-0.0674
ADAM17 C365 (UniProt P78536),-0.0187,0.0787,-0.103,-0.00496
AGO2 C188,0.0187,-0.0801,0.242,0.0772
ADAM17 C423 (UniProt P78536),-0.49,-0.116,-0.349,-0.26
AKAP11 C1290 (UniProt Q9UKA4),-0.21,-0.114,-0.352,-0.0699
AHNAK C5502 (UniProt Q09666),-0.135,-0.116,0.0061,-0.061
AKAP9 C870 (UniProt Q99996),0.173,-0.463,0.227,-0.167
ADK C353,-0.116,-0.167,-0.76,-0.0856
ALDH1B1 C386 (UniProt P30837),-0.0717,0.422,0.148,0.671
AHCYL1 C272 (UniProt O43865),-0.033,-0.113,-0.14,-0.107
AKAP5 C150 (UniProt P24588),-0.0534,-0.0749,-0.0456,0.1
AMPD2 C123 (UniProt Q01433),0.271,0.221,0.108,0.297
AGPS C214 (UniProt O00116),0.139,-0.215,-0.279,-0.169
ADSS2 C182 (UniProt P30520),-0.00701,0.1,0.125,0.28
ANKHD1 C1716,-0.149,-0.0778,-0.355,-0.278
ALDH1L2 C472 (UniProt Q3SY69),-0.207,0.109,0.0426,0.104

Target,log2 mean competition ratio ([1]; 50 µM),log2 mean competition ratio ([1]; 200 µM),log2 mean competition ratio ([2]; 50 µM),log2 mean competition ratio ([2]; 200 µM)
ANAPC1 C988 (UniProt Q9H1A4),-0.438,-0.00826,0.134,-0.0148
ALX1 C248,0.0357,0.061,-0.374,0.0874
ACSF3 C83 (UniProt Q4G176),-0.271,0.181,-0.0158,0.178
ACD C320 (UniProt Q96AP0),-0.279,-0.00223,0.124,0.0618
ACTR5 C48 (UniProt Q9H9F9),-0.315,-0.0775,0.285,0.00868
AIMP2 C143 (UniProt Q13155),0.162,-0.226,0.451,-0.441
ACOT8 C302 (UniProt O14734),-0.303,0.336,-0.15,-0.111
ACSL4 C363 (UniProt O60488),0.41,-0.101,-0.311,-0.0851
ADNP C223 (UniProt Q9H2P0),0.0505,0.405,-0.23,0.482
ADSL C483 (UniProt P30566),-0.00304,0.373,-0.13,0.521
ACSL4 C157 (UniProt O60488),-0.34,-0.365,-0.193,-0.4
AFAP1L1 C676 (UniProt Q8TED9),-0.202,-0.155,-0.412,-0.327
ACSF2 C462 (UniProt Q96CM8),-0.24,-0.3,-0.293,-0.189
ANKFY1 C742 (UniProt Q9P2R3),-0.424,-0.153,-0.0849,-0.0497
ANK3 C1409 (UniProt Q12955),-0.0806,-0.0339,-0.145,0.114
ALDH9A1 C45 (UniProt P49189),-0.278,-0.281,0.0886,-0.272
AFF1 C892 (UniProt P51825),-0.355,-0.417,-0.423,0.057
ANKHD1 C535,-0.326,-0.19,0.386,-0.143
ADAM15 C560 (UniProt Q13444),-0.303,-0.182,-0.139,0.185
ADAM17 C469 (UniProt P78536),-0.124,0.214,-0.0653,0.132
AGFG2 C39 (UniProt O95081),0.161,0.245,0.149,0.455
ALG2 C70 (UniProt Q9H553),0.191,0.216,-0.204,0.382
ALS2 C664 (UniProt Q96Q42),-0.218,-0.188,0.184,-0.00186
AFAP1L1 C547 (UniProt Q8TED9),-0.148,-0.0351,0.123,0.173
AFAP1 C201 (UniProt Q8N556),0.108,1.11,-0.349,0.244

# Complete entries, quoted from the list. Values in the order: log2 mean competition ratio ([1]; 50 µM)	log2 mean competition ratio ([1]; 200 µM)	log2 mean competition ratio ([2]; 50 µM)	log2 mean competition ratio ([2]; 200 µM)
# ADAM17 C469 (UniProt P78536) is listed with -0.124	0.214	-0.0653	0.132
# ACSL4 C157 (UniProt O60488) is listed with -0.34	-0.365	-0.193	-0.4
# AFAP1L1 C547 (UniProt Q8TED9) is listed with -0.148	-0.0351	0.123	0.173
# ALDH9A1 C45 (UniProt P49189) is listed with -0.278	-0.281	0.0886	-0.272

# Additional results

Target,log2 mean competition ratio ([1]; 50 µM),log2 mean competition ratio ([1]; 200 µM),log2 mean competition ratio ([2]; 50 µM),log2 mean competition ratio ([2]; 200 µM)
AGPAT5 C252 (UniProt Q9NUQ2),0.144,-0.0141,-0.0113,0.173
AKAP9 C3521 (UniProt Q99996),-0.225,-0.463,0.151,-0.465
ACTG1 C217,0.22,0.0356,0.64,-0.13
ADAMTS1 C892,-0.168,0.626,0.0953,0.249
AMOT C455 (UniProt Q4VCS5),-0.334,0.153,-0.541,0.0906
ALG13 C132 (UniProt Q9NP73),-0.13,-0.145,0.0903,0.269
ACBD3 C487 (UniProt Q9H3P7),0.0954,-0.273,-0.147,-0.174
ADAT1 C48 (UniProt Q9BUB4),-0.232,-0.261,-0.279,-0.268
ACLY C1040 (UniProt P53396),0.0339,0.0284,0.133,0.078
AHR C316,-0.247,-0.0563,-0.494,-0.142
ADCY9 C1204 (UniProt O60503),-0.137,-0.0342,-0.225,0.289
ALDH18A1 C546 (UniProt P54886),-0.245,0.25,-0.248,0.115
AK6 C81 (UniProt Q9Y3D8),-0.339,0.145,-0.322,-0.0183
AMOT C741 (UniProt Q4VCS5),-0.154,0.244,-0.0786,0.264
AFAP1 C713 (UniProt Q8N556),-0.0379,0.102,0.202,0.243
AGAP1 C417 (UniProt Q9UPQ3),0.0231,0.175,-0.307,-0.0087
ALKBH1 C129 (UniProt Q13686),0.264,-0.105,0.0283,-0.335
AKT2 C77 (UniProt P31751),0.438,0.0733,0.148,-0.0493
ALKBH1 C304 (UniProt Q13686),0.325,0.0494,-0.138,-0.155
AKAP1 C147 (UniProt Q92667),-0.0397,-0.000529,-0.256,0.151
AHSA1 C301 (UniProt O95433),0.107,-0.553,0.0653,-0.397
AHNAK C2806 (UniProt Q09666),-0.268,-0.145,-0.182,-0.0487
ACSL3 C450 (UniProt O95573),0.104,0.174,0.0649,0.0927
AKAP13 C1414 (UniProt Q12802),-0.496,-0.267,0.163,0.02
ANKFY1 C749 (UniProt Q9P2R3),-0.212,0.0968,-0.034,0.0817

Target,log2 mean competition ratio ([1]; 50 µM),log2 mean competition ratio ([1]; 200 µM),log2 mean competition ratio ([2]; 50 µM),log2 mean competition ratio ([2]; 200 µM)
AHSA1 C56 (UniProt O95433),-0.382,0.0328,0.12,-0.147
AKAP11 C1488 (UniProt Q9UKA4),-0.129,0.477,-0.0487,0.247
AKAP1 C389 (UniProt Q92667),-0.0759,-0.107,0.157,-0.0411
ALX1 C99,-0.0593,0.211,-0.283,0.137
AFDN C960,-0.0533,0.273,-0.132,0.335
AKAP13 C972 (UniProt Q12802),0.00425,-0.0632,0.23,0.194
ALKBH8 C568 (UniProt Q96BT7),0.104,0.429,-0.148,-0.0862
AIP C254 (UniProt O00170),-0.154,-0.101,-0.146,-0.634
AKAP11 C1820 (UniProt Q9UKA4),-0.422,0.576,-0.382,0.158
ALKBH2 C192 (UniProt Q6NS38),0.384,0.303,0.761,0.27
ACLY C229 (UniProt P53396),-0.28,-0.0432,-0.0414,0.141
AGO2 C717,-0.299,0.334,-0.19,0.1
AHCTF1 C354 (UniProt Q8WYP5),-0.0949,-0.196,0.954,0.128
ANKIB1 C21 (UniProt Q9P2G1),-0.149,-0.00838,-0.258,-0.0541
ALDH1L2 C558 (UniProt Q3SY69),0.0792,0.0149,-0.0669,-0.0539
ACTG1 C285,-0.0387,-0.0956,-0.163,-0.0415
ADPRS C132,-0.206,0.183,-0.195,0.105
ACSL6 C625 (UniProt Q9UKU0),-0.0653,-0.214,-0.667,-0.099
AGTPBP1 C805 (UniProt Q9UPW5),-0.148,0.132,-0.321,-0.0823
AGFG1 C89 (UniProt P52594),-0.148,0.113,-0.374,-0.136
ACYP2 C22 (UniProt P14621),0.297,0.0839,0.2,0.0634
ACIN1 C546,-0.153,-0.333,0.28,-0.0905
ADO C239 (UniProt Q96SZ5),-0.108,-0.271,0.329,-0.0261
